Reference: PMC3520743
Results are given in words; binding and its absence hold for the method and conditions named. For some assays here: Binding seen in cells or lysates may run through a third protein. Some entries that bind do so weakly or less than the wild type. For some assays here: Where a sequence is shown, tags or fusion partners need not be part of it.

T1: Bacillus cereus Fnr, recombinant tag-less apo-form (Bacillus cereus F4430/73) (UniProt A4GFD9)
T1 sequence: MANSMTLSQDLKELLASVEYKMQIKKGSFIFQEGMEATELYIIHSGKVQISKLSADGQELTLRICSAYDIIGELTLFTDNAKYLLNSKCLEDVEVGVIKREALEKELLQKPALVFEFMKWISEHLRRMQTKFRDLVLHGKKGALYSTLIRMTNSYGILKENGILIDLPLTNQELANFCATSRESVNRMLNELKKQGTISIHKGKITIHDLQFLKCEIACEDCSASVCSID

T2: Bacillus cereus Fnr, reconstituted holo-form with a [4Fe-4S]2+ cluster (Bacillus cereus F4430/73) (UniProt A4GFD9)
T2 sequence (chain, one [4Fe-4S]2+ cluster per monomer): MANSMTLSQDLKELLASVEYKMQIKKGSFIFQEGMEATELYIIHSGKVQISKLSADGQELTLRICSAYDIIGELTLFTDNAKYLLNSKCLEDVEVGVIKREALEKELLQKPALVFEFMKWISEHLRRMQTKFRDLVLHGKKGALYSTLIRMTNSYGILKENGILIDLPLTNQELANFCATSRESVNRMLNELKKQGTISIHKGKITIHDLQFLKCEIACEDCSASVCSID

T3: Fnr, endogenous in Bacillus cereus F4430/73 (Bacillus cereus (endogenous in B. cereus F4430/73)) (UniProt A4GFD9)
T3 sequence: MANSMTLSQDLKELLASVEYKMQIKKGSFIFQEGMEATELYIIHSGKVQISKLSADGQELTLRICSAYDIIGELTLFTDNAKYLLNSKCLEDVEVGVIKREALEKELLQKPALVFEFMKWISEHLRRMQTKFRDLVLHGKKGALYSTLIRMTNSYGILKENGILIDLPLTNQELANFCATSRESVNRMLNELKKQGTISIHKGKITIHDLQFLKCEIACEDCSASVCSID


Key:
[1] = target: T1, Bacillus cereus Fnr, recombinant tag-less apo-form (Bacillus cereus F4430/73); experiment: cross-linking; dimethyl suberimidate (DMS), in an anaerobic glove box; 12% SDS-PAGE, Western blot with anti-Fnr and anti-ResD antibodies; both purified
[2] = target: ResD, recombinant purified (Bacillus cereus) (UniProt Q0GZR8); experiment: far-Western, overlay or dot blot; increasing amounts of purified Fnr, ResD, PlcR and BSA spotted onto nitrocellulose, incubated with biotinylated PlcR or biotinylated ResD under anoxic conditions; streptavidin-HRP, chemiluminescence; both purified
[3] = target: T2, Bacillus cereus Fnr, reconstituted holo-form with a [4Fe-4S]2+ cluster (Bacillus cereus F4430/73); experiment: as above
[4] = target: T1, Bacillus cereus Fnr, recombinant tag-less apo-form (Bacillus cereus F4430/73); experiment: as above
[5] = target: T3, Fnr, endogenous in Bacillus cereus F4430/73 (Bacillus cereus (endogenous in B. cereus F4430/73)); experiment: co-IP; cleared lysate of anaerobically grown B. cereus F4430/73 incubated with polyclonal anti-Fnr on protein A Dynabeads; SDS-PAGE or non-denaturing PAGE, blots with anti-Fnr, anti-ResD, anti-PlcR

binding [1] | binding [2] | binding [3] | binding [4] | binding [5] | Binder
binds | binds | binds | binds | – | ResD, recombinant purified (protein, UniProt Q0GZR8 1-238, biotin (where used as the probe in the Far-Western)) MENESRILIVDDEDRIRRLLKMYLEREQYTIEEADNGDTALEMALQNDYDLILLDLMMPGKDGIEVCKGVREKKATPIIMLTAKGEEVNRVQGFEVGTDDYIVKPFSPREVVLRVKAVLRRAVPTTFFTQDTTTKDVTVFPHLTIDNDAHRVTADGNEVNLTPKEYELLLFLAKAPDKVFDREQLLKEVWQYEFFGDLRTVDTHVKRLREKLSKKSPDAAKMIVTVWGVGYKFEVVND
– | – | – | – | binds | ResD, endogenous in Bacillus cereus F4430/73 (protein, UniProt Q0GZR8 1-238) MENESRILIVDDEDRIRRLLKMYLEREQYTIEEADNGDTALEMALQNDYDLILLDLMMPGKDGIEVCKGVREKKATPIIMLTAKGEEVNRVQGFEVGTDDYIVKPFSPREVVLRVKAVLRRAVPTTFFTQDTTTKDVTVFPHLTIDNDAHRVTADGNEVNLTPKEYELLLFLAKAPDKVFDREQLLKEVWQYEFFGDLRTVDTHVKRLREKLSKKSPDAAKMIVTVWGVGYKFEVVND
